At least one structure is not confirmed: it was looked up by name or label, or the drawing left a doubt.
Tests used:
[1] = tested on: D-amino acid transaminase; test: Substrate specificity of purified D-amino acid transaminase toward keto acids (amino acceptors); format: biochemical, Bacillus sphaericus; conditions: for Activity of D-amino acid transaminase toward amino acceptor (in words): Tables 7 and 8
Protocol: Each of amino acceptors shown in Tables 7 and 8 and D-alanine or D-homoalanine as substrates were allowed to react with the D-amino acid transaminase purified in Example 7. Specifically, each amino acceptor (20 mM), D-alanine or D-homoalanine (20 mM), and potassium phosphate (50 mM, pH 7) were allowed to react with 0.1 U/ml of the D-amino acid transaminase at 37° C. for 10 min, and the amount of a keto acid (pyruvate or 2-oxobutyrate) generated was measured.

[2] = tested on: (S)-selective ω-transaminase derived from P. denitrificans; test: Substrate specificity of (S)-selective ω-transaminase toward keto acids; format: biochemical, Paracoccus denitrificans; conditions: keto acid 20 mM, (S)-α-methylbenzylamine 20 mM, 50 mM potassium phosphate pH 7, 37° C., 10 min
Protocol: The substrate specificity of the (S)-selective ω-transaminase was confirmed in each keto acid (20 mM), (S)-α-methylbenzylamine (20 mM) and potassium phosphate (50 mM, pH 7). After the reactions were carried out at 37° C. for 10 min, the amounts of acetophenone produced were measured.

SMILES	Activity of D-amino acid transaminase toward amino acceptor (in words) [1]	2-Oxobutyrate (mM) generated ([1]; amino acceptor 20 mM, D-homoalanine 20 mM as amino donor, 0.1 U/ml enzyme, 50 mM potassium phosphate pH 7, 37° C., 10 min) [mM]	Acetophenone (mM) P. denitrificans [2] [mM]
O=C(O)C(=O)Cc1ccccc1 [Phenylpyruvate]	have activity		
CC(=O)C(=O)O [Pyruvate]	have activity	0.399	1.216

From patent publication US9777301B2, “Method for producing optically active amine compounds by deracemization” (INDUSTRY-ACADEMIC COOPERATION FOUNDATION, YONSEI UNIVERSITY, priority 2012, dated 2017)
